Here are results for 57 molecules from PubChem BioAssay AID2685 (National Center for Advancing Translational Sciences (NCATS), 2010).

The test can be described thus: qHTS Assay for Lipid Storage Modulators in Drosophila S3 Cells.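 As to cell number change: cells counted by Cell Tracker Red CMTPX staining in the red channel.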 The following applies: BODIPY lipid droplet fluorescence, 18-24 h; for cell number change: measured here: cell count max response, cells fed with added oleic acid. The method, boiled down:
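Drosophila S3 cells got compounds at several concentrations plus oleic acid (400 uM solution). Laser-scanning cytometry with 488 nm excitation read lipid droplets at 500-530 nm and cells at 575-640 nm. Percent activity was relative to 20 uM Triacsin C.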
(In qHTS, concentration-response curves come from the screen itself.)

Where [1] appears, read: measured here: cell number channel AC50, cells fed with added oleic acid.
[2] abbreviates: measured here: lipid fluorescence (Fed channel) AC50, cells fed with added oleic acid.

The list shows a part of the results. Further columns of the screen follow, without active or inactive calls. The list favours compounds with an active or inconclusive main result. The note in brackets gives the kind of curve behind each potency; many fits are weak.

The term AC50 denotes the midpoint of the concentration-response curve, whichever way the signal moves. Low values mean greater potency, high ones weaker potency. In the case of `CCOC(=O)/C(C#N)=C\c1cccnc1`, the cell number change was -19.1%. The concentration at half-maximal activity (AC50) under setting [1] was 0.092 µM [rising, partial curve, poor fit]. In addition, the AC50 under setting [2] is 6.51 µM [rising, single point].

As to `CC1CCCC(C)N1C(=O)c1cc(-c2ccc(Cl)c(Cl)c2)on1` (stereo unspecified), the cell number change came out at 5.66%. Under setting [2], the AC50 is 20.6 µM [rising, single point].

With `Nc1ncnc2nc(SCC(=O)N3CCN(c4ccccc4)CC3)[nH]c12`, the cell number change came out at 35.4%. For the same molecule, under setting [1], the AC50 was 1.64 µM [rising, partial curve, poor fit]. Under setting [2], the AC50 was 0.92 µM [rising, single point].

As for `COc1cccc(CN(C)C(=O)CNC(=O)c2ccc(-c3ccccc3)cc2)c1OC`, the cell number change is -23%. In addition, under setting [2], the concentration at half-maximal activity (AC50) is 6.51 µM [rising, single point].

In the case of `O=C(NCCCN1CCCC1=O)c1ccc(NS(=O)(=O)c2ccc(F)cc2)cc1`, the cell number change is -9.09%. Besides, the AC50 under setting [2] is 0.116 µM [falling, full curve, poor fit].

Turning to `COc1ccccc1OCCCCOc1ccccc1C(C)=O`, the cell number change is 3.87%. Besides, under setting [2], the AC50 was 5.8 µM [falling, partial curve].

Turning to `O=C(CCNC(=O)c1ccccc1)N=Nc1c(O)[nH]c2ccccc12`, the cell number change came to 17.2%. Besides, the AC50 under setting [1] is 0.517 µM [rising, full curve, poor fit]. For the same molecule, the AC50 under setting [2] is 29.1 µM [rising, single point].

On to `COc1ccc(CNC(=O)C2CCC(CNS(=O)(=O)c3cccs3)CC2)cc1` (stereo unspecified), for which the cell number change was -10.3%.

On to `O=C(c1ccc2c(c1)OCO2)N1CCN(c2ccccc2)CC1`, for which the cell number change is -3.33%. Besides, the AC50 under setting [2] was 8.2 µM [rising, partial curve].

With `CCOC(=O)C1C(=O)CC(C)(O)C(C(=O)OCC)C1c1ccc(OC)cc1` (stereo unspecified), the cell number change was -2.37%. The AC50 under setting [1] is 1.46 µM [falling, partial curve, poor fit]. Under setting [2], the AC50 is 0.651 µM [falling, full curve, poor fit].

`CSCCC(NC(=O)c1c(C)oc2c1CCCC2)C(=O)O` (stereo unspecified): the cell number change was -3.14%. Besides, the AC50 under setting [2] was 5.17 µM [falling, partial curve, poor fit].

For the molecule `O=C(O)c1cc2cc(F)ccc2[nH]1`, the cell number change worked out at 20%. Besides, the AC50 under setting [2] is 6.51 µM [falling, single point].

As for `Cc1ccccc1-n1c(SCC(=O)N2CCN(c3ccccn3)CC2)nnc1N1CCOCC1`, the cell number change is -7.73%.

With `CC1CCCC(C)N1C(=O)c1ccc2c(c1)S(=O)(=O)c1ccccc1C2=O` (stereo unspecified), the cell number change is 6.45%.

As to `CCOC(=O)c1cccc(NC(=O)c2cncc(Br)c2)c1`, the cell number change stood at 32.3%. Further, the AC50 under setting [1] is 0.461 µM [rising, partial curve, poor fit]. Moreover, under setting [2], the AC50 is 6.51 µM [rising, single point].

Take `COc1ccccc1NC(=O)CCC(=O)O`: the AC50 under setting [1] was 5.17 µM [falling, single point].

Take `O=C(COC(=O)CCCOc1ccc(Cl)cc1Cl)NCc1ccc(F)cc1`: the cell number change came to 9.77%. In addition, the AC50 under setting [2] is 20.6 µM [rising, single point].

On to `Oc1c(N=NC(=S)Nc2ccccc2F)c2ccccc2n1Cc1ccccc1`, for which the cell number change is -25.9%. Further, the half-maximal activity concentration (AC50) under setting [2] is 0.00461 µM [falling, full curve, poor fit].

In the case of `CC(=O)Nc1ccc(S(=O)(=O)NC2CC3CCC2C3)cc1` (stereo unspecified), the cell number change stood at 16.8%. The AC50 under setting [2] was 29.1 µM [rising, single point].

As for `COCCCNC(=S)NC(=O)c1ccc([N+](=O)[O-])cc1`, the cell number change is -16.7%. In addition, the AC50 under setting [1] was 0.00411 µM [falling, full curve, poor fit]. Under setting [2], the concentration at half-maximal activity (AC50) is 0.461 µM [rising, full curve, poor fit].

Regarding `COc1cc(NC(=O)C2CCN(S(=O)(=O)c3cnc[nH]3)CC2)cc(OC)c1OC`, the cell number change is -57.6%. For the same molecule, under setting [1], the AC50 is 16.4 µM [falling, single point].

Consider `O=c1cc(CSc2ccc(Cl)cc2)nc(-c2ccccc2)[nH]1`, for which the cell number change amounted to 67.7%. Further, the half-maximal activity concentration (AC50) under setting [1] was 6.51 µM [falling, single point].

For the molecule `O=C(Cn1c(=O)n(Cc2ccc(F)cc2)c(=O)c2ccccc21)NCC1CCCO1` (stereo unspecified), the cell number change came out at 20.4%. Besides, under setting [2], the concentration at half-maximal activity (AC50) was 0.58 µM [falling, single point].

With `O=C1CCc2cc(S(=O)(=O)N3CCC(C(=O)NC4CCCC4)CC3)ccc2N1`, the cell number change is -21.8%. Also, the AC50 under setting [1] was 0.146 µM [falling, full curve, poor fit]. Under setting [2], the AC50 is 2.06 µM [falling, full curve].

In the case of `CCCCN(CC)C(=O)Cc1ccccc1OC`, the cell number change stood at 85.3%. Further, the AC50 under setting [1] was 29.1 µM [rising, single point].

For the molecule `COc1cc(NC(=O)C(C)C)ccc1NC(=O)c1cc2ccccc2o1`, the cell number change was -12.9%. Moreover, the AC50 under setting [2] was 16.4 µM [falling, single point].

With `CCCC(O)(CCN1CCCCC1)c1ccc(OCC)cc1` (stereo unspecified), the AC50 under setting [2] is 0.0058 µM [falling, full curve].

`Cc1ccc(C)c(NC(=O)CN(C)C(=O)c2cc3c(s2)CCCCC3)c1`: the AC50 by setting is: under setting [1], 0.164 µM [rising, partial curve, poor fit]; under setting [2], 0.461 µM [rising, partial curve].

For `CN(CC(=O)Nc1ccc(F)c(F)c1F)C(=O)C1CSC2(C)CCC(=O)N12` (stereo unspecified), the cell number change turned out to be 20.4%. Also, under setting [2], the concentration at half-maximal activity (AC50) is 0.092 µM [falling, full curve, poor fit].

As for `O=C(CCS(=O)(=O)c1cc(Br)cc2c1N(C(=O)C1CC1)CC2)NCC1CCCO1` (stereo unspecified), the AC50 under setting [1] is 3.66 µM [rising, single point].

Regarding `O=C(O/N=C1\CCS(=O)(=O)c2sccc21)c1c(F)cccc1F`, the half-maximal activity concentration (AC50) is, setting by setting: under setting [1], 0.103 µM [rising, full curve, poor fit]; under setting [2], 0.0731 µM [rising, full curve, poor fit].

Turning to `Cc1nc(C(C)(C)O)n(-c2ccccc2)n1`, the cell number change was determined as 0.272%. The AC50 under setting [2] is 6.51 µM [falling, single point].

As for `CCOCCCn1c(SCc2ccccc2)nnc1-c1ccncc1`, the cell number change was found to be 11.3%. Further, under setting [2], the AC50 was 6.51 µM [falling, single point].

Take `O=C(NC1=C(Nc2ccc(F)cc2)C(=O)c2ccccc2C1=O)c1ccc(Cl)cc1`: the cell number change was -88.5%. Also, under setting [1], the AC50 is 14.6 µM [falling, partial curve]. Further, the AC50 under setting [2] was 14.6 µM [falling, partial curve, poor fit].

As for `CCCCNC(=O)CCNC(=O)c1ccc(C(C)(C)C)cc1`, the cell number change was -20.1%. Further, the AC50 under setting [2] is 7.31 µM [falling, partial curve].

On to `Cc1c(NC(=O)CN2CCN(c3cccc(Cl)c3)CC2)c(=O)n(-c2ccccc2)n1C`, for which the cell number change was -28.4%. In addition, the AC50 under setting [2] was 0.082 µM [falling, full curve, poor fit].

In the case of `CCOc1ccc2nc3sc(C(=O)N4CCN(C)CC4)c(N)c3cc2c1`, the cell number change is 23.5%. The AC50 under setting [2] was 0.651 µM [rising, partial curve].

`CCN(CC)S(=O)(=O)c1ccc(N2CCOCC2)c(NC(=O)Cc2ccccc2)c1`: the cell number change is -22%. For the same molecule, the AC50 under setting [2] is 1.46 µM [falling, partial curve, poor fit].

On to `COc1ccc(/C=C/c2nc3cc(-c4ccccc4)ccc3o2)cc1O`, for which the cell number change came out at 22.7%. In addition, the AC50 under setting [2] was 3.26 µM [rising, partial curve, poor fit].

As to `Cn1cc(CN2CCN(c3ccccc3)CC2)c2ccccc21`, the cell number change worked out at 20%. Under setting [2], the AC50 was 7.31 µM [rising, partial curve, poor fit].

For the molecule `Cc1ccc(OCCOc2ccc(Br)cc2/C=N\NC(N)=O)cc1`, the cell number change is -50.2%. Moreover, the AC50 under setting [1] was 29.1 µM [falling, single point]. Besides, under setting [2], the AC50 is 20.6 µM [falling, single point].

Regarding `Cc1ccc(C)c(S(=O)(=O)N2CCCOC2CNC(=O)C(=O)NC2CC2)c1` (stereo unspecified), the cell number change was 21.7%. The concentration at half-maximal activity (AC50) under setting [2] was 0.13 µM [rising, full curve, poor fit].

For the molecule `CCOC(=O)CN(C(=O)CNC(=O)c1ccco1)C(C(=O)NC1CCCC1)c1ccccc1OCC` (stereo unspecified), the cell number change was -2.81%. The AC50 under setting [2] is 29.1 µM [rising, single point].

For `CCOC(=O)c1c(C)[nH]c(C(=O)OCC(=O)c2c(N)n(C)c(=O)n(C)c2=O)c1C`, the cell number change came to 8.22%. Besides, the AC50 under setting [2] is 0.1 µM [rising, partial curve, poor fit].

As to `O=C(N1CCCCC1)C1(c2ccccc2)CCCCC1`, the cell number change is -34.4%. Under setting [1], the AC50 is 16.4 µM [falling, single point].

Take `CCCC(c1nnnn1C(C)(C)CC)N1CCN(C2CCCC2)CC1` (stereo unspecified): the cell number change is -5.23%. Further, under setting [1], the AC50 is 0.164 µM [rising, full curve, poor fit].

`Cc1ccsc1CN(C)C(=O)CCc1nnc(COc2ccccc2)o1`: the cell number change was -7.29%. The AC50 under setting [2] was 29.1 µM [falling, single point].

Regarding `N#C/C(=C(/O)COC(=O)c1cccnc1Cl)c1nc2ccccc2[nH]1`, the cell number change is 4.75%.

Turning to `COc1cccc(OC)c1OCCN(C)C`, the cell number change is -43.9%. In addition, the AC50 under setting [1] was 20.6 µM [falling, single point].

For `CCCc1cc(=O)[nH]c(SCC(=O)c2c(N)n(C3CC3)c(=O)[nH]c2=O)n1`, the cell number change is -7.23%. Under setting [2], the AC50 is 0.0291 µM [falling, full curve, poor fit].

`COc1ccc(N2CC(C(=O)NCCc3c[nH]c4ccccc34)CC2=O)cc1` (stereo unspecified): the cell number change came out at 17.6%.

For the molecule `CC1CCCCC1NC(=O)COC(=O)c1ccc2ncsc2c1` (stereo unspecified), the cell number change came out at 9.77%. Under setting [2], the AC50 was 29.1 µM [rising, partial curve].

As to `CC(=O)Oc1ccc2occ(C(=O)c3cccs3)c2c1`, the AC50 under setting [2] is 23.1 µM [falling, single point].

As to `COCC(=O)Nc1nnc(COc2ccccc2)s1`, the cell number change was -16.1%. Moreover, the AC50 under setting [1] is 0.092 µM [falling, full curve]. The AC50 under setting [2] is 0.164 µM [falling, full curve].

Turning to `CCCCNC(=O)COC(=O)c1cc(C)oc1C`, the cell number change was 11.3%. For the same molecule, under setting [2], the AC50 is 29.1 µM [falling, partial curve].

Consider `Cc1cc(C)n2nc(SCCC(=O)NCCc3ccccc3)nc2n1`, for which the cell number change worked out at 104%. In addition, the AC50 under setting [1] is 5.17 µM [rising, partial curve]. Further, the AC50 under setting [2] is 29.1 µM [rising, partial curve, poor fit].

Take `O=C(Cn1ccc2ccccc2c1=O)NCC(=O)N1CCN(c2ccccc2F)CC1`: the cell number change is -13.5%. Moreover, under setting [2], the AC50 was 0.184 µM [falling, partial curve, poor fit].
